The other results are listed elsewhere or left out.
Assays:
Assay in all cases: log2 fold change, soluble protein after heating vs DMSO (PISA); higher = thermal stabilisation; K562 cells, 10 uM, 30 min; active = over 0.2 and 3.5 SD of the protein, either way, in both replicates (recomputed)
[1] = compound: C1=CC=C(C=C1)[C@H](COC2=CC3=C(C=C2)NC(=O)N3)NC(=O)C4=CC=CN(C4=O)CC5=CC(=C(C=C5)F)F
Outline: (§1)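 K562 cells at 2×10^6 cells/mL were treated for 30 min with 10 μM compound, and aliquots were heated for 3 min over 48°C-58°C before pooling. Extraction used PBS with 0.5% NP-40 at 4°C, and soluble protein was the supernatant after 21,000xg for 90 min, measured by TMTpro 16plex LC-MS/MS with channel sums equalised. Thermal stability values, relative to control samples and from duplicates, are log2 fold changes.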

Chains of the proteins cited; added tags and fusions are not shown. Lines headed by an entry give the natural chain unless they say otherwise; changes in a name come on top.
UniProt O43447: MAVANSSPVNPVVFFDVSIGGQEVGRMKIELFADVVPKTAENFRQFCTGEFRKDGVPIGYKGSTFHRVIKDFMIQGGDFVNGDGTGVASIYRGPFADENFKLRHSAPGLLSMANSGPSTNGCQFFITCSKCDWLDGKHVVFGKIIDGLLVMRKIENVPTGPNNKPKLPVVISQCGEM
UniProt Q8NBT0: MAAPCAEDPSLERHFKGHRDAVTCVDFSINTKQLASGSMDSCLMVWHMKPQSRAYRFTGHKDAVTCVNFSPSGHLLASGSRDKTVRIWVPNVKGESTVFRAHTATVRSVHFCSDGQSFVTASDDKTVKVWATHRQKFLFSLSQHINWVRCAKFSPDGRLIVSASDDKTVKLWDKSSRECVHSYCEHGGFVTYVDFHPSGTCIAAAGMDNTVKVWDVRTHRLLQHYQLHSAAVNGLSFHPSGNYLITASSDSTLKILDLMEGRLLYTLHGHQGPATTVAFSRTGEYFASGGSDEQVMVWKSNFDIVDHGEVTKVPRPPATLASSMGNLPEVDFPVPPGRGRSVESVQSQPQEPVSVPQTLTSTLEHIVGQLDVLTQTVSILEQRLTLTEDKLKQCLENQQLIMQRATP
UniProt Q9NQ55: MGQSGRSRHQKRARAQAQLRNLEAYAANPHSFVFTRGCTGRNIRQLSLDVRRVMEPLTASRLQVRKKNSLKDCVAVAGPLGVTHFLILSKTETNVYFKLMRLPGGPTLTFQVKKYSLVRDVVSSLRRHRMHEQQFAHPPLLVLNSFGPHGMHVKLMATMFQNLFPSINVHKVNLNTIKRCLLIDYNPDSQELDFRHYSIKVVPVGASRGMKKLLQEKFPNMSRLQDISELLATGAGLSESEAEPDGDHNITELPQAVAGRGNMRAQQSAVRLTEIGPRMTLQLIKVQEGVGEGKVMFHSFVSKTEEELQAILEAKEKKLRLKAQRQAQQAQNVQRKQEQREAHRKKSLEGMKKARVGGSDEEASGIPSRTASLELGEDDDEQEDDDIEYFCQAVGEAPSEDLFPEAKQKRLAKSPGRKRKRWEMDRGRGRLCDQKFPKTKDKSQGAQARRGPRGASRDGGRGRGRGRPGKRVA
UniProt P09884: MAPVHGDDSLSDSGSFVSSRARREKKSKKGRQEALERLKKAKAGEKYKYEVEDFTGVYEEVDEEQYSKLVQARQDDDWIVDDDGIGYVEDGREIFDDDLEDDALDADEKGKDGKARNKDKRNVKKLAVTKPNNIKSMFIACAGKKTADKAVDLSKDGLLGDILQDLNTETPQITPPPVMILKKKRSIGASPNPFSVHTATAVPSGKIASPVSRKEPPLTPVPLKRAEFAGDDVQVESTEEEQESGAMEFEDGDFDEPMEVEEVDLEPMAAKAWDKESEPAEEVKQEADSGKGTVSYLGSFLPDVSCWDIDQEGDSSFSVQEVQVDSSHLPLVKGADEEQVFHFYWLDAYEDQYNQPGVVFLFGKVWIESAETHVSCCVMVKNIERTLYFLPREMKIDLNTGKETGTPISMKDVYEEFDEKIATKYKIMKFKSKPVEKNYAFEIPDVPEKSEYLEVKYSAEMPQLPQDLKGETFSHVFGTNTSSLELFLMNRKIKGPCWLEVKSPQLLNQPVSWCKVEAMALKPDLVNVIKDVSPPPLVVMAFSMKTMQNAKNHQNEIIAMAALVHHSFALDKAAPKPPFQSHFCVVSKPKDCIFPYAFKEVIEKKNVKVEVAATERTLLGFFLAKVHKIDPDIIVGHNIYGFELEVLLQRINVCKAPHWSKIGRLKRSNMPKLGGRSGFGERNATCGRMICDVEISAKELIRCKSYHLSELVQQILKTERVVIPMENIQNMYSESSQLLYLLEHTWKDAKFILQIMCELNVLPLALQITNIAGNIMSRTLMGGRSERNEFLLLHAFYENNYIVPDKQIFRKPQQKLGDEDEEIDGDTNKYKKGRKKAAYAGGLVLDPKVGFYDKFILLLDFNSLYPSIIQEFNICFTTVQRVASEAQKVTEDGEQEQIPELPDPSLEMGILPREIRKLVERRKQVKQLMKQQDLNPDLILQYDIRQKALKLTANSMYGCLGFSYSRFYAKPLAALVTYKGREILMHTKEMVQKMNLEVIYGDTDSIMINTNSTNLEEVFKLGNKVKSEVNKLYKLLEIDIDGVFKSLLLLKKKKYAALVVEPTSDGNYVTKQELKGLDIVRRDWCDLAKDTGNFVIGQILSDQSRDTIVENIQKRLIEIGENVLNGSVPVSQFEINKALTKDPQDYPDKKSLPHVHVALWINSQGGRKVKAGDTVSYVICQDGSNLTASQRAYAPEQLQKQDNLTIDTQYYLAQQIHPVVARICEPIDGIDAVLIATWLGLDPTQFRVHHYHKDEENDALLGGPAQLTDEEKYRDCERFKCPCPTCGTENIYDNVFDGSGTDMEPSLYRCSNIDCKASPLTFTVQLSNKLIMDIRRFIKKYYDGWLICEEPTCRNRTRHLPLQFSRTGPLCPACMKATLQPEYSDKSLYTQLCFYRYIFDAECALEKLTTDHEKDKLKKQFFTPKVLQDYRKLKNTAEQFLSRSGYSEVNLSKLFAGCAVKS
UniProt Q9BY77: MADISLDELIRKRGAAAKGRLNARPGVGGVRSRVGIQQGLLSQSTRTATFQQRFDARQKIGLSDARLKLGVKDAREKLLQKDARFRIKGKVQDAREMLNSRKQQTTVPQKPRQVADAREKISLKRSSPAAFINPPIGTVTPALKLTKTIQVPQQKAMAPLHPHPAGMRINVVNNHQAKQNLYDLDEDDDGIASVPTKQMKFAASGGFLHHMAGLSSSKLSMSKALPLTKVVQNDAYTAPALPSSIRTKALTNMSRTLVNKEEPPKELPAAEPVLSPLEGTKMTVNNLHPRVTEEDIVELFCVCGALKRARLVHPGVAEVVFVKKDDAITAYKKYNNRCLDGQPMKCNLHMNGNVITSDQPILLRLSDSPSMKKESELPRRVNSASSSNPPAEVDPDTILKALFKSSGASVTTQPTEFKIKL
UniProt O15305: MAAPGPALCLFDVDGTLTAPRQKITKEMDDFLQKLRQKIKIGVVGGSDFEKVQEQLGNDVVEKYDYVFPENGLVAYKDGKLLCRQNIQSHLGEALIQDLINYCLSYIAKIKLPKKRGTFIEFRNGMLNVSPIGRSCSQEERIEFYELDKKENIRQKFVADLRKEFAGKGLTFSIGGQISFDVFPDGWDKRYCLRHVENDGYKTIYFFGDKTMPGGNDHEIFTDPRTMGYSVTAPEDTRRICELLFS
UniProt P05423: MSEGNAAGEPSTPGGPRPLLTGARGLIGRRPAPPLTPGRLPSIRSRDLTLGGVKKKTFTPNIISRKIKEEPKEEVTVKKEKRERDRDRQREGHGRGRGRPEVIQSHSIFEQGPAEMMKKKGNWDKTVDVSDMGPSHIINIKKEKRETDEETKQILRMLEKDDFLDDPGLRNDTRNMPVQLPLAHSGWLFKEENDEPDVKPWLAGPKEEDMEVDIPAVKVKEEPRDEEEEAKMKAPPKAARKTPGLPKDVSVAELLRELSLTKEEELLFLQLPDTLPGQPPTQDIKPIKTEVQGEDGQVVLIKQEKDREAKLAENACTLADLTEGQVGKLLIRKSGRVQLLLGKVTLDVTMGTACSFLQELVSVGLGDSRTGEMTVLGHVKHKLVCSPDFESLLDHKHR
UniProt Q9H2U2: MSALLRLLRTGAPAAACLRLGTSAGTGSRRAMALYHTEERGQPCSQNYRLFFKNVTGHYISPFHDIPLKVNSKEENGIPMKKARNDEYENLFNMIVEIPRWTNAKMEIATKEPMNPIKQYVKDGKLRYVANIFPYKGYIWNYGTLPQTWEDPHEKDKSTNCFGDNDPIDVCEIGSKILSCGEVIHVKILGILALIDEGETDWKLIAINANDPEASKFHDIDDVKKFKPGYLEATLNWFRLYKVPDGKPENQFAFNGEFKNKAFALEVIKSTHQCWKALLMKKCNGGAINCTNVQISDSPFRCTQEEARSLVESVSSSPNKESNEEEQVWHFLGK
UniProt P00747, whole entry, looked up: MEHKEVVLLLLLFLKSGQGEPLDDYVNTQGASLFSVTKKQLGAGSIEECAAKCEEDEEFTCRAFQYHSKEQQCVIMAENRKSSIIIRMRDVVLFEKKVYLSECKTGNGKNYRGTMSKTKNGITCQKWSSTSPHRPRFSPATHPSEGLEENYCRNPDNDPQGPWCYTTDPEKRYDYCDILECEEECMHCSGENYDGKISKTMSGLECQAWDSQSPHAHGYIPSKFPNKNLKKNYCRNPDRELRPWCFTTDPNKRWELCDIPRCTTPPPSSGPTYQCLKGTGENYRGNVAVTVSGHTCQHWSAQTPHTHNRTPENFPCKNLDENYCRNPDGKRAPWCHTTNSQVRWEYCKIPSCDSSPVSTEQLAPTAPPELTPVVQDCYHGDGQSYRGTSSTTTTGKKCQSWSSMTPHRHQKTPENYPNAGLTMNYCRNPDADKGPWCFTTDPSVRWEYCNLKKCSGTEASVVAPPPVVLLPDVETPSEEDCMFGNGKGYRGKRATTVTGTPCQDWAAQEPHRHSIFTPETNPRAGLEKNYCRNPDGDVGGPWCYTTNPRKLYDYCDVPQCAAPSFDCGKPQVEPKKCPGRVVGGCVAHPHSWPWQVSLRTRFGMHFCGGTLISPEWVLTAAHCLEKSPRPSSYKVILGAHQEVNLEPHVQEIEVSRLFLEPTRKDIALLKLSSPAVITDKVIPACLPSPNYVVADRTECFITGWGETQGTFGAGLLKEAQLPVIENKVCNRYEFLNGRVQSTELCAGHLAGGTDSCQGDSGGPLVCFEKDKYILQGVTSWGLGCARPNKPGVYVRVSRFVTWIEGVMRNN

[2] = compound: CC1=C(SC2=C1C(=N[C@H](C3=NN=C(N32)C)CC(=O)N)C4=CC=C(C=C4)Cl)C
Outline: as §1

[3] = compound: CC1=C2C(=CC=C1)N=C(N(C2=O)C3=CC=CC=C3C)CN4C=NC5=C(N=CN=C54)N
Outline: as §1

[4] = compound: Cc1sc2c(c1C)C(c1ccc(Cl)cc1)=N[C@@H](CC(=O)OC(C)(C)C)c1nnc(C)n1-2
Outline: as §1

[5] = compound: c1ccc([C@@H]2C[C@H]2NC2CCNCC2)cc1
Outline: as §1

Measured: log2 fold change

PPIH (UniProt O43447)
inactive: [1] -0.052 | [2] 0.013 | [3] 0.108 | [4] 0 | [5] -0.021

POC1A (UniProt Q8NBT0)
inactive: [1] -0.014 | [2] 0.039 | [3] -0.116 | [4] 0.367 | [5] 0.057

PPAN isoform 3 (UniProt Q9NQ55)
inactive: [1] 0.015 | [2] -0.244 | [3] -0.164 | [4] 0.12 | [5] -0.067

POLA1 (UniProt P09884)
inactive: [1] -0.059 | [2] 0.105 | [3] 0.101 | [4] -0.012 | [5] 0

POLDIP3 (UniProt Q9BY77)
inactive: [1] -0.01 | [2] -0.092 | [3] -0.075 | [4] 0.108 | [5] -0.011

PMM2 (UniProt O15305)
inactive: [1] 0.003 | [2] 0.046 | [3] -0.027 | [4] 0.06 | [5] 0.009

POLR3D (UniProt P05423)
inactive: [1] 0.008 | [2] -0.072 | [3] -0.013 | [4] 0.056 | [5] 0.096

PPA2 (UniProt Q9H2U2)
inactive: [1] -0.009 | [2] 0.022 | [3] 0.063 | [4] -0.042 | [5] -0.044

PLG (UniProt P00747)
inactive: [1] 0.026 | [2] -0.056 | [3] -0.125 | [4] 0.046 | [5] 0.065

From the supplement of paper PMC10849652
